The text below walks through data of paper PMC5645412, “AUNIP/C1orf135 directs DNA double-strand breaks towards the homologous recombination repair pathway” (Nature Communications, 2017).

Protein sequences, listed by entry. Tags and fused reporters are not part of them.
UniProt Q99708: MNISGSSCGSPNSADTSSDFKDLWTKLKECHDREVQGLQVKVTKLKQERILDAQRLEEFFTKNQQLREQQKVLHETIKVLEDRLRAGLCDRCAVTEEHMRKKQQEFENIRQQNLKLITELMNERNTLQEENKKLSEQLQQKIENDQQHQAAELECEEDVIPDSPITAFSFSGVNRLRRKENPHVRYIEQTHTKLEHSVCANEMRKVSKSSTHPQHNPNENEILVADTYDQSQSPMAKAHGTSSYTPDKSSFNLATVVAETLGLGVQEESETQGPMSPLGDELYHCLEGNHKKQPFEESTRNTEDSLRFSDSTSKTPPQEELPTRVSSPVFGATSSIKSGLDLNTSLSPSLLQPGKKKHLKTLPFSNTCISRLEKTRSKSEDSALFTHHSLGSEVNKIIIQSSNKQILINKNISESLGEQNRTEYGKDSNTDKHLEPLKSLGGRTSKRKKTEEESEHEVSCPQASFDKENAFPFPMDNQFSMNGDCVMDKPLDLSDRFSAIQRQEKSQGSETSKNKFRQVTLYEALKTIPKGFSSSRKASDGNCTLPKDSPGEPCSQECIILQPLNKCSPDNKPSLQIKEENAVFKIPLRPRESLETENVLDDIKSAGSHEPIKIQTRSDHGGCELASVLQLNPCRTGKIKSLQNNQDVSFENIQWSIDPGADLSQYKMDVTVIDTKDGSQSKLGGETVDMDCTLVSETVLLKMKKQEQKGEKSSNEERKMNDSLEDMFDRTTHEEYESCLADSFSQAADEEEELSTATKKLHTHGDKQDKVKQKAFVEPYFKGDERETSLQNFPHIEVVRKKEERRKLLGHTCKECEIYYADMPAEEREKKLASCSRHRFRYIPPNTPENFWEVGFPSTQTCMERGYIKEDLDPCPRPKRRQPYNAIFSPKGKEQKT
UniProt Q92878: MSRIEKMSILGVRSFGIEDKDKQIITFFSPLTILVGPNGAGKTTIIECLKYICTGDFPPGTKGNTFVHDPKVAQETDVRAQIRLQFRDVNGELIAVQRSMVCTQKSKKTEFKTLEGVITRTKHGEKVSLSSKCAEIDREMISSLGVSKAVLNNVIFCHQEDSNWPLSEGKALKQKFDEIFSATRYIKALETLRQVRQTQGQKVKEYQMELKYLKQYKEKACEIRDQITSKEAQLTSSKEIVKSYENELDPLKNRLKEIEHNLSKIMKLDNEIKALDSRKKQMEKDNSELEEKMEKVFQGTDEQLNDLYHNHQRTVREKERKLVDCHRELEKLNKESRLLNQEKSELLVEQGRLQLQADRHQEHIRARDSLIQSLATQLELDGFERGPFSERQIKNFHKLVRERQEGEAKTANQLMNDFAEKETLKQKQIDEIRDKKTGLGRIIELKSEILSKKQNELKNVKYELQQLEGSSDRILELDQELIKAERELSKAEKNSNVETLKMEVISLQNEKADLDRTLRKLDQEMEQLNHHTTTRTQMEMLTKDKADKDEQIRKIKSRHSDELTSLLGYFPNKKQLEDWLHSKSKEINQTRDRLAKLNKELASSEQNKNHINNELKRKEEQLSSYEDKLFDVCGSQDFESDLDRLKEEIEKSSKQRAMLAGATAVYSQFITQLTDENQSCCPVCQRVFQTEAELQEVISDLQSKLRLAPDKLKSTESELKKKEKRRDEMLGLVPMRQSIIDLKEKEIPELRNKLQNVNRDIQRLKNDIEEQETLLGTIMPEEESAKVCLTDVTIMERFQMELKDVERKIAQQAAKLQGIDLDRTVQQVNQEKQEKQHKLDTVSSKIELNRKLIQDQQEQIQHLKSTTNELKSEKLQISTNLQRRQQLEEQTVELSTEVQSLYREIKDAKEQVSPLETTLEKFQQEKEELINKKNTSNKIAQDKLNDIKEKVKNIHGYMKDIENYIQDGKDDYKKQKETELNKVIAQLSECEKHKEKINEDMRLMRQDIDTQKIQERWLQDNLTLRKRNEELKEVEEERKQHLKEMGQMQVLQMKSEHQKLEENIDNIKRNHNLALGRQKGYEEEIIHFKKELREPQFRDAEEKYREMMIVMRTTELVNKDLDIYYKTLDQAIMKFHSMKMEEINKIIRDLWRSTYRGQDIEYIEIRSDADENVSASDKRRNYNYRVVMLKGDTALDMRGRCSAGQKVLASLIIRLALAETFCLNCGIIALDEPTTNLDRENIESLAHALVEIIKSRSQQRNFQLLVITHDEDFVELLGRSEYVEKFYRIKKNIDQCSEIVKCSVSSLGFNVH

No constants are given. Whether binding was seen depends on the method and setting. Binding seen in cells or lysates may run through a third protein. Here binding means that the protein was enriched with, or labelled near, the bait; the list need not be complete. For some of these results: Tags and fused reporters may be left off the sequences shown.

Assay [1] concerns the target SFB-tagged wild-type CtIP (UniProt Q99708). The experiment in a line: affinity purification with mass spectrometry; tandem affinity purification of SFB-CtIP from stably expressing HEK293T cells: NETN lysate and chromatin extract, streptavidin beads, biotin elution, S-protein Agarose, SDS-PAGE, mass spectrometry.
In the next assay the target is T1, SFB-tagged AUNIP (human) (UniProt Q9H7T9).
T1 sequence: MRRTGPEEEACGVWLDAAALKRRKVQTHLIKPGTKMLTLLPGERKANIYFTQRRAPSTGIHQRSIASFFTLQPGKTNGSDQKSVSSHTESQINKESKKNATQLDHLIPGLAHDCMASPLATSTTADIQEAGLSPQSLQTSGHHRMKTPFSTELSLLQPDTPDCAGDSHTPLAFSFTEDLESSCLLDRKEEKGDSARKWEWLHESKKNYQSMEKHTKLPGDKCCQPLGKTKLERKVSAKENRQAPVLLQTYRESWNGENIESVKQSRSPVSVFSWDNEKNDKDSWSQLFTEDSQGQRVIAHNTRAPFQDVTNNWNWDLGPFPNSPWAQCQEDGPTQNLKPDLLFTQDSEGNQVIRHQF
The experiment in a line: affinity purification with mass spectrometry; reverse tandem affinity purification of SFB-AUNIP from stably expressing HEK293T cells: NETN lysate and chromatin extract, streptavidin beads, biotin elution, S-protein Agarose, SDS-PAGE, mass spectrometry.

Consider RAD50 (from UniProt Q92878 1-1312), for which the binding entry (in assay [1]; in the assay with SFB-tagged AUNIP (human)) was “binds” each time.

B1: DNA2 (protein, UniProt P51530 1-1060)
chain: MEQLNELELLMEKSFWEEAELPAELFQKKVVASFPRTVLSTGMDNRYLVLAVNTVQNKEGNCEKRLVITASQSLENKELCILRNDWCSVPVEPGDIIHLEGDCTSDTWIIDKDFGYLILYPDMLISGTSIASSIRCMRRAVLSETFRSSDPATRQMLIGTVLHEVFQKAINNSFAPEKLQELAFQTIQEIRHLKEMYRLNLSQDEIKQEVEDYLPSFCKWAGDFMHKNTSTDFPQMQLSLPSDNSKDNSTCNIEVVKPMDIEESIWSPRFGLKGKIDVTVGVKIHRGYKTKYKIMPLELKTGKESNSIEHRSQVVLYTLLSQERRADPEAGLLLYLKTGQMYPVPANHLDKRELLKLRNQMAFSLFHRISKSATRQKTQLASLPQIIEEEKTCKYCSQIGNCALYSRAVEQQMDCSSVPIVMLPKIEEETQHLKQTHLEYFSLWCLMLTLESQSKDNKKNHQNIWLMPASEMEKSGSCIGNLIRMEHVKIVCDGQYLHNFQCKHGAIPVTNLMAGDRVIVSGEERSLFALSRGYVKEINMTTVTCLLDRNLSVLPESTLFRLDQEEKNCDIDTPLGNLSKLMENTFVSKKLRDLIIDFREPQFISYLSSVLPHDAKDTVACILKGLNKPQRQAMKKVLLSKDYTLIVGMPGTGKTTTICTLVRILYACGFSVLLTSYTHSAVDNILLKLAKFKIGFLRLGQIQKVHPAIQQFTEQEICRSKSIKSLALLEELYNSQLIVATTCMGINHPIFSRKIFDFCIVDEASQISQPICLGPLFFSRRFVLVGDHQQLPPLVLNREARALGMSESLFKRLEQNKSAVVQLTVQYRMNSKIMSLSNKLTYEGKLECGSDKVANAVINLRHFKDVKLELEFYADYSDNPWLMGVFEPNNPVCFLNTDKVPAPEQVEKGGVSNVTEAKLIVFLTSIFVKAGCSPSDIGIIAPYRQQLKIINDLLARSIGMVEVNTVDKYQGRDKSIVLVSFVRSNKDGTVGELLKDWRRLNVAITRAKHKLILLGCVPSLNCYPPLEKLLNHLNSEKLIIDLPSREHESLCHILGDFQRE
Take B1: the binding result with SFB-tagged AUNIP (human) is listed as “binds”.

B2: GST-tagged AUNIP (wild-type) (natural protein, human, UniProt Q9H7T9 1-357, looked up)
chain: T1 sequence
notes: AUNIP/C1orf135, human; pCold vectors may add further N-terminal vector residues; also called GST-AUNIP; recombinant GST-AUNIP; source: E. coli BL21, purified on glutathione-Sepharose resin (kept on the beads)
With B2, the binding result in assay [1] is “binds”.
